This passage reports binding results from article PMC8436130.

Amino acid sequences for entries named in this document (tags omitted).
UniProt Q86WV6: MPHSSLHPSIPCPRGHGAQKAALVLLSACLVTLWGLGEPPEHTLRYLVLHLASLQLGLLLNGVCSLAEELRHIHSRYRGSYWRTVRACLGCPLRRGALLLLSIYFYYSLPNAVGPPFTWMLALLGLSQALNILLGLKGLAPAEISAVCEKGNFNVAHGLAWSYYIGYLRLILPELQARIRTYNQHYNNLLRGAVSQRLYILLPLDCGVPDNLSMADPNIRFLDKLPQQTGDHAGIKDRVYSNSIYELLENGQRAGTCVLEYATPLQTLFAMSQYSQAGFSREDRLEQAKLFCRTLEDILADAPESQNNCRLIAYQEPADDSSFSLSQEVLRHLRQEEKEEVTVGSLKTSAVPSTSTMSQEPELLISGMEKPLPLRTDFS

Results are given in words; binding and its absence hold for the method and conditions named. In cells and extracts the contact can be indirect. A yes stands for co-enrichment or nearness to the bait. Other partners may have been found.

B1: HNRNPL (protein, UniProt P14866 1-589)
chain: MSRRLLPRAEKRRRRLEQRQQPDEQRRRSGAMVKMAAAGGGGGGGRYYGGGSEGGRAPKRLKTDNAGDQHGGGGGGGGGAGAAGGGGGGENYDDPHKTPASPVVHIRGLIDGVVEADLVEALQEFGPISYVVVMPKKRQALVEFEDVLGACNAVNYAADNQIYIAGHPAFVNYSTSQKISRPGDSDDSRSVNSVLLFTILNPIYSITTDVLYTICNPCGPVQRIVIFRKNGVQAMVEFDSVQSAQRAKASLNGADIYSGCCTLKIEYAKPTRLNVFKNDQDTWDYTNPNLSGQGDPGSNPNKRQRQPPLLGDHPAEYGGPHGGYHSHYHDEGYGPPPPHYEGRRMGPPVGGHRRGPSRYGPQYGHPPPPPPPPEYGPHADSPVLMVYGLDQSKMNCDRVFNVFCLYGNVEKVKFMKSKPGAAMVEMADGYAVDRAITHLNNNFMFGQKLNVCVSKQPAIMPGQSYGLEDGSCSYKDFSESRNNRFSTPEQAAKNRIQHPSNVLHFFNAPLEVTEENFFEICDELGVKRPSSVKVFSGKSERSSSGLLEWESKSDALETLGFLNHYQMKNPNGPYPYTLKLCFSTAQHAS
B2: HNRNPR (protein, UniProt O43390 1-633)
chain: MANQVNGNAVQLKEEEEPMDTSSVTHTEHYKTLIEAGLPQKVAERLDEIFQTGLVAYVDLDERAIDALREFNEEGALSVLQQFKESDLSHVQNKSAFLCGVMKTYRQREKQGSKVQESTKGPDEAKIKALLERTGYTLDVTTGQRKYGGPPPDSVYSGVQPGIGTEVFVGKIPRDLYEDELVPLFEKAGPIWDLRLMMDPLSGQNRGYAFITFCGKEAAQEAVKLCDSYEIRPGKHLGVCISVANNRLFVGSIPKNKTKENILEEFSKVTEGLVDVILYHQPDDKKKNRGFCFLEYEDHKSAAQARRRLMSGKVKVWGNVVTVEWADPVEEPDPEVMAKVKVLFVRNLATTVTEEILEKSFSEFGKLERVKKLKDYAFVHFEDRGAAVKAMDEMNGKEIEGEEIEIVLAKPPDKKRKERQAARQASRSTAYEDYYYHPPPRMPPPIRGRGRGGGRGGYGYPPDYYGYEDYYDDYYGYDYHDYRGGYEDPYYGYDDGYAVRGRGGGRGGRGAPPPPRGRGAPPPRGRAGYSQRGAPLGPPRGSRGGRGGPAQQQRGRGSRGSRGNRGGNVGGKRKADGYNQPDSKRRQTNNQQNWGSQPIAQQPLQQGGDYSGNYGYNNDNQEFYQDTYGQQWK
B3: EBNA1BP2 (protein, UniProt Q99848 1-306)
chain: MDTPPLSDSESESDESLVTDRELQDAFSRGLLKPGLNVVLEGPKKAVNDVNGLKQCLAEFKRDLEWVERLDVTLGPVPEIGGSEAPAPQNKDQKAVDPEDDFQREMSFYRQAQAAVLAVLPRLHQLKVPTKRPTDYFAEMAKSDLQMQKIRQKLQTKQAAMERSEKAKQLRALRKYGKKVQTEVLQKRQQEKAHMMNAIKKYQKGFSDKLDFLEGDQKPLAQRKKAGAKGQQMRKGPSAKRRYKNQKFGFGGKKKGSKWNTRESYDDVSSFRAKTAHGRGLKRPGKKGSNKRPGKRTREKMKNRTH
B4: RSF1 (protein, UniProt Q96T23 1-1441)
chain: MATAAAAAAVMAPPGCPGSCPNFAVVCSFLERYGPLLDLPELPFPELERVLQAPPPDVGNGEVPKELVELHLKLMRKIGKSVTADRWEKYLIKICQEFNSTWAWEMEKKGYLEMSVECKLALLKYLCECQFDDNLKFKNIINEEDADTMRLQPIGRDKDGLMYWYQLDQDHNVRMYIEEQDDQDGSSWKCIVRNRNELAETLALLKAQIDPVLLKNSSQQDNSSRESPSLEDEETKKEEETPKQEEQKESEKMKSEEQPMDLENRSTANVLEETTVKKEKEDEKELVKLPVIVKLEKPLPENEEKKIIKEESDSFKENVKPIKVEVKECRADPKDTKSSMEKPVAQEPERIEFGGNIKSSHEITEKSTEETEKLKNDQQAKIPLKKREIKLSDDFDSPVKGPLCKSVTPTKEFLKDEIKQEEETCKRISTITALGHEGKQLVNGEVSDERVAPNFKTEPIETKFYETKEESYSPSKDRNIITEGNGTESLNSVITSMKTGELEKETAPLRKDADSSISVLEIHSQKAQIEEPDPPEMETSLDSSEMAKDLSSKTALSSTESCTMKGEEKSPKTKKDKRPPILECLEKLEKSKKTFLDKDAQRLSPIPEEVPKSTLESEKPGSPEAAETSPPSNIIDHCEKLASEKEVVECQSTSTVGGQSVKKVDLETLKEDSEFTKVEMDNLDNAQTSGIEEPSETKGSMQKSKFKYKLVPEEETTASENTEITSERQKEGIKLTIRISSRKKKPDSPPKVLEPENKQEKTEKEEEKTNVGRTLRRSPRISRPTAKVAEIRDQKADKKRGEGEDEVEEESTALQKTDKKEILKKSEKDTNSKVSKVKPKGKVRWTGSRTRGRWKYSSNDESEGSGSEKSSAASEEEEEKESEEAILADDDEPCKKCGLPNHPELILLCDSCDSGYHTACLRPPLMIIPDGEWFCPPCQHKLLCEKLEEQLQDLDVALKKKERAERRKERLVYVGISIENIIPPQEPDFSEDQEEKKKDSKKSKANLLERRSTRTRKCISYRFDEFDEAIDEAIEDDIKEADGGGVGRGKDISTITGHRGKDISTILDEERKENKRPQRAAAARRKKRRRLNDLDSDSNLDEEESEDEFKISDGSQDEFVVSDENPDESEEDPPSNDDSDTDFCSRRLRRHPSRPMRQSRRLRRKTPKKKYSDDDEEEESEENSRDSESDFSDDFSDDFVETRRRRSRRNQKRQINYKEDSESDGSQKSLRRGKEIRRVHKRRLSSSESEESYLSKNSEDDELAKESKRSVRKRGRSTDEYSEADEEEEEEEGKPSRKRLHRIETDEEESCDNAHGDANQPARDSQPRVLPSEQESTKKPYRIESDEEEDFENVGKVGSPLDYSLVDLPSTNGQSPGKAIENLIGKPTEKSQTPKDNSTASASLASNGTSGGQEAGAPEEEEDELLRVTDLVDYVCNSEQL
B5: TMPOα (protein, UniProt P42166 1-694)
chain: MPEFLEDPSVLTKDKLKSELVANNVTLPAGEQRKDVYVQLYLQHLTARNRPPLPAGTNSKGPPDFSSDEEREPTPVLGSGAAAAGRSRAAVGRKATKKTDKPRQEDKDDLDVTELTNEDLLDQLVKYGVNPGPIVGTTRKLYEKKLLKLREQGTESRSSTPLPTISSSAENTRQNGSNDSDRYSDNEEGKKKEHKKVKSTRDIVPFSELGTTPSGGGFFQGISFPEISTRPPLGSTELQAAKKVHTSKGDLPREPLVATNLPGRGQLQKLASERNLFISCKSSHDRCLEKSSSSSSQPEHSAMLVSTAASPSLIKETTTGYYKDIVENICGREKSGIQPLCPERSHISDQSPLSSKRKALEESESSQLISPPLAQAIRDYVNSLLVQGGVGSLPGTSNSMPPLDVENIQKRIDQSKFQETEFLSPPRKVPRLSEKSVEERDSGSFVAFQNIPGSELMSSFAKTVVSHSLTTLGLEVAKQSQHDKIDASELSFPFHESILKVIEEEWQQVDRQLPSLACKYPVSSREATQILSVPKVDDEILGFISEATPLGGIQAASTESCNQQLDLALCRAYEAAASALQIATHTAFVAKAMQADISQAAQILSSDPSRTHQALGILSKTYDAASYICEAAFDEVKMAAHTMGNATVGRRYLWLKDCKINLASKNKLASTPFKGGTLFGGEVCKVIKKRGNKH
B6: TMPOβ (protein, UniProt P42167 1-454)
chain: MPEFLEDPSVLTKDKLKSELVANNVTLPAGEQRKDVYVQLYLQHLTARNRPPLPAGTNSKGPPDFSSDEEREPTPVLGSGAAAAGRSRAAVGRKATKKTDKPRQEDKDDLDVTELTNEDLLDQLVKYGVNPGPIVGTTRKLYEKKLLKLREQGTESRSSTPLPTISSSAENTRQNGSNDSDRYSDNEEDSKIELKLEKREPLKGRAKTPVTLKQRRVEHNQSYSQAGITETEWTSGSSKGGPLQALTRESTRGSRRTPRKRVETSEHFRIDGPVISESTPIAETIMASSNESLVVNRVTGNFKHASPILPITEFSDIPRRAPKKPLTRAEVGEKTEERRVERDILKEMFPYEASTPTGISASCRRPIKGAAGRPLELSDFRMEESFSSKYVPKYVPLADVKSEKTKKGRSIPVWIKILLFVVVAVFLFLVYQAMETNQVNPFSNFLHVDPRKSN
B7: RBM28 (protein, UniProt Q9NW13 1-759)
chain: MAGLTLFVGRLPPSARSEQLEELFSQVGPVKQCFVVTEKGSKACRGFGYVTFSMLEDVQRALKEITTFEGCKINVTVAKKKLRNKTKEKGKNENSECPKKEPKAKKAKVADKKARLIIRNLSFKCSEDDLKTVFAQFGAVLEVNIPRKPDGKMRGFGFVQFKNLLEAGKALKGMNMKEIKGRTVAVDWAVAKDKYKDTQSVSAIGEEKSHESKHQESVKKKGREEEDMEEEENDDDDDDDDEEDGVFDDEDEEEENIESKVTKPVQIQKRAVKRPAPAKSSDHSEEDSDLEESDSIDDGEELAQSDTSTEEQEDKAVQVSNKKKRKLPSDVNEGKTVFIRNLSFDSEEEELGELLQQFGELKYVRIVLHPDTEHSKGCAFAQFMTQEAAQKCLLAASPENEAGGLKLDGRQLKVDLAVTRDEAAKLQTTKVKKPTGTRNLYLAREGLIRAGTKAAEGVSAADMAKRERFELLKHQKLKDQNIFVSRTRLCLHNLPKAVDDKQLRKLLLSATSGEKGVRIKECRVMRDLKGVHGNMKGQSLGYAFAEFQEHEHALKALRLINNNPEIFGPLKRPIVEFSLEDRRKLKMKELRIQRSLQKMRSKPATGEPQKGQPEPAKDQQQKAAQHHTEEQSKVPPEQKRKAGSTSWTGFQTKAEVEQVELPDGKKRRKVLALPSHRGPKIRLRDKGKVKPVHPKKPKPQINQWKQEKQQLSSEQVSRKKAKGNKTETRFNQLVEQYKQKLLGPSKGAPLAKRSKWFDS
B8: RRP1B (protein, UniProt Q14684 1-758)
chain: MAPAMQPAEIQFAQRLASSEKGIRDRAVKKLRQYISVKTQRETGGFSQEELLKIWKGLFYCMWVQDEPLLQEELANTIAQLVHAVNNSAAQHLFIQTFWQTMNREWKGIDRLRLDKYYMLIRLVLRQSFEVLKRNGWEESRIKVFLDVLMKEVLCPESQSPNGVRFHFIDIYLDELSKVGGKELLADQNLKFIDPFCKIAAKTKDHTLVQTIARGVFEAIVDQSPFVPEETMEEQKTKVGDGDLSAEEIPENEVSLRRAVSKKKTALGKNHSRKDGLSDERGRDDCGTFEDTGPLLQFDYKAVADRLLEMTSRKNTPHFNRKRLSKLIKKFQDLSEGSSISQLSFAEDISADEDDQILSQGKHKKKGNKLLEKTNLEKEKGSRVFCVEEEDSESSLQKRRRKKKKKHHLQPENPGPGGAAPSLEQNRGREPEASGLKALKARVAEPGAEATSSTGEESGSEHPPAVPMHNKRKRPRKKSPRAHREMLESAVLPPEDMSQSGPSGSHPQGPRGSPTGGAQLLKRKRKLGVVPVNGSGLSTPAWPPLQQEGPPTGPAEGANSHTTLPQRRRLQKKKAGPGSLELCGLPSQKTASLKKRKKMRVMSNLVEHNGVLESEAGQPQALGSSGTCSSLKKQKLRAESDFVKFDTPFLPKPLFFRRAKSSTATHPPGPAVQLNKTPSSSKKVTFGLNRNMTAEFKKTDKSILVSPTGPSRVAFDPEQKPLHGVLKTPTSSPASSPLVAKKPLTTTPRRRPRAMDFF

The experiment has as its target STimulator of INterferon Genes (STING) fused to GFP (UniProt Q86WV6). Put plainly: affinity purification with mass spectrometry; nuclear envelopes isolated from HEK293T cells expressing STING-GFP, reversibly cross-linked with ortho-phenanthroline copper, resuspended in RIPA and sonicated, immunoprecipitated with GFP antibodies on Protein A-sepharose, released with 50 mM DTT, tandem mass spectrometry; mock-transfected cells as control.
For B1, the binding result was “binds”.
Then B2, with “binds”; and B3, with “binds”; and B4, with “binds”.
Next, B5: “binds”; B6: “binds”; B7: “binds”.
Next, B8: “binds”.
